Laboratory results reported in the supplement of paper PMC3334620.
The full ranking holds about 33,000 sequences; the median of “E-score (-0.5 to 0.5)” is about -0.0014, and the highest 2% start at about 0.25. Some of the results follow.

molecular target: T1, Cad1 (UniProt P24813); experiment: PBM E-score (8-mer binding enrichment) (E-score (-0.5 to 0.5)); higher = stronger / more preferred TF binding; conditions: protein concentration: 100 nM; construct: GST-full length
T1 sequence: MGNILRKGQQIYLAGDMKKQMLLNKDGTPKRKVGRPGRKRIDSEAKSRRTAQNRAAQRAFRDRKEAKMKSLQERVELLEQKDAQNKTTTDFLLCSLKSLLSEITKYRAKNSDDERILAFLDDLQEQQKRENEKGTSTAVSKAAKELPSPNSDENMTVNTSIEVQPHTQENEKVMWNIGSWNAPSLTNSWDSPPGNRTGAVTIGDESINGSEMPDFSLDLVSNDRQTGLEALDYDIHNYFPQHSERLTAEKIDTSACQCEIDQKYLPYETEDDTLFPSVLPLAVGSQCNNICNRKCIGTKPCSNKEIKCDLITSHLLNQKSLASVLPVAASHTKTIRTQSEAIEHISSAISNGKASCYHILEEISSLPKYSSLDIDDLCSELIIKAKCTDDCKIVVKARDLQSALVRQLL
Procedure: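 Universal 'all 10-mer' protein binding microarrays (Agilent AMADID 015681) probed with GST-tagged S. cerevisiae TFs (full-length or DBD) made by in vitro transcription/translation (PURExpress), about 100-200 nM. Bound TF was detected with fluorescent anti-GST. Each ungapped 8-mer (which stands for itself and its reverse complement) is scored by the PBM enrichment score (E-score), a modified Wilcoxon-Mann-Whitney statistic from -0.5 to +0.5, computed with the Universal PBM Analysis Suite. Scale: above 0.35 generally sequence-specific binding.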

Going from AGCAACGG to TGATCACA, the “PBM E-score” value rises from 0.0958 to 0.123.

Compared with AGCAATGA, GGAGTTCA is lower in “PBM E-score” value: 0.0476 for the first, -0.0351 for the second.

Compared with CCTACGTA, CTGGATCA is lower in “PBM E-score” value: -0.149 for the first, -0.151 for the second.

First: AAATGGCG
Second: CGAATTCA
The “PBM E-score” value of the first is lower: -0.16 for the first, 0.0615 for the second.

Compared with AGCCAGGC, TAGAACTA is lower in “PBM E-score” value: 0.0257 for the first, 0.0157 for the second.

Compared with CGGCAATA, TATTACAA is higher in “PBM E-score” value: 0.0935 for the first, 0.152 for the second.

First: ACAACGAG
Second: ATGCGGTA
The “PBM E-score” value of the first is higher: -0.0738 for the first, -0.208 for the second.

Going from CCGTCTGC to AAATGTCG, the “PBM E-score” value rises from -0.00418 to 0.0695.

Going from AGCCAAAT to AATCTCAT, the “PBM E-score” value rises from 0.0169 to 0.0796.

Going from CAGTCACA to CTAGGGGA, the “PBM E-score” value falls from 0.179 to -0.202.

First: CTCGACAG
Second: AAGGAGCA
The “PBM E-score” value of the first is higher: -0.00093 for the first, -0.183 for the second.

Compared with CACAATCC, ACTCACGA is lower in “PBM E-score” value: 0.0771 for the first, 0.0591 for the second.

First: ATTTTTAG
Second: CTGGTGTC
The “PBM E-score” value of the first is higher: 0.0211 for the first, 0.0128 for the second.

Compared with GACACTGC, CCATAACC is lower in “PBM E-score” value: -0.0407 for the first, -0.113 for the second.

Going from TCGTCGCA to GAGCTGCC, the “PBM E-score” value falls from -0.0104 to -0.154.

Compared with CGGAAAGA, CCAAACTA is lower in “PBM E-score” value: -0.0252 for the first, -0.0349 for the second.

Going from AACGAACT to AGTACATG, the “PBM E-score” value falls from -0.0473 to -0.0558.

Compared with GTAGTCGA, ATTACTGG is lower in “PBM E-score” value: 0.0225 for the first, -0.0522 for the second.

Compared with ACTATGTG, ACCTGACA is higher in “PBM E-score” value: -0.0308 for the first, 0.0788 for the second.

First: GGGTGTAC
Second: CCGGATCC
The “PBM E-score” value of the first is lower: -0.157 for the first, -0.0194 for the second.

Compared with CCCAGTCA, AAGCATGT is higher in “PBM E-score” value: -0.241 for the first, 0.0317 for the second.

First: GATAAAGC
Second: ACTTCCGG
The “PBM E-score” value of the first is higher: 0.0358 for the first, -0.00579 for the second.

First: CAGCGGTC
Second: ACCTGAAA
The “PBM E-score” value of the first is lower: -0.229 for the first, 0.0769 for the second.

Compared with AAGGGAGC, AGGTGATC is higher in “PBM E-score” value: -0.279 for the first, 0.0891 for the second.

Compared with GAGGGTAC, ACGTCCAT is higher in “PBM E-score” value: -0.344 for the first, 0.0953 for the second.

First: ATCCTACC
Second: CTCGCAGA
The “PBM E-score” value of the first is lower: -0.119 for the first, -0.0592 for the second.

First: AGCCGGTG
Second: TCCGCTCA
The “PBM E-score” value of the first is higher: -0.135 for the first, -0.195 for the second.

Compared with ATTGAAAC, ACGTATTA is higher in “PBM E-score” value: 0.0715 for the first, 0.125 for the second.

Compared with GGGTTACA, CACTCGTA is lower in “PBM E-score” value: -0.0862 for the first, -0.161 for the second.

Going from ACTAATGA to GGAATTGA, the “PBM E-score” value falls from 0.128 to 0.0411.

First: CAGGATTC
Second: GCACCTTA
The “PBM E-score” value of the first is lower: 0.00521 for the first, 0.034 for the second.

Compared with CGGACTAC, CAGCAGGC is higher in “PBM E-score” value: -0.0671 for the first, 0.0279 for the second.

Going from ACTTAGAG to AGCGCAGG, the “PBM E-score” value rises from -0.171 to -0.0954.

Going from CGGCCACG to CGATCACG, the “PBM E-score” value rises from -0.121 to 0.273.

First: CGCGAAGC
Second: ACAGTCTC
The “PBM E-score” value of the first is higher: 0.219 for the first, -0.184 for the second.

First: ACATGCAG
Second: CTACCGAG
The “PBM E-score” value of the first is higher: 0.0212 for the first, -0.0829 for the second.

Compared with CTTTAATA, AGACAAAC is lower in “PBM E-score” value: 0.218 for the first, -0.0413 for the second.

Compared with CGTCGAAC, AATAGGCC is lower in “PBM E-score” value: -0.0156 for the first, -0.0239 for the second.

Compared with AACAGGTA, CTAGTGGC is lower in “PBM E-score” value: -0.113 for the first, -0.135 for the second.

Compared with CAAACGAA, ATGAGGTC is lower in “PBM E-score” value: 0.0543 for the first, -0.214 for the second.

Going from AGTGGTCA to ACTCAAAG, the “PBM E-score” value rises from -0.143 to -0.0553.

Going from CCACCCGG to AACAAACT, the “PBM E-score” value rises from -0.154 to 0.145.

Going from CTCAGCGA to CCTCGACC, the “PBM E-score” value falls from 0.0552 to -0.171.

First: CCGGATGA
Second: AAGCGTGA
The “PBM E-score” value of the first is higher: 0.116 for the first, 0.0493 for the second.

Compared with AGCAAGCC, GGAGTAGA is higher in “PBM E-score” value: -0.113 for the first, 0.0431 for the second.

Compared with ACGCGTAT, AGCCTAAG is lower in “PBM E-score” value: 0.18 for the first, -0.182 for the second.

Going from TATCGATA to ACCTGGAT, the “PBM E-score” value falls from 0.131 to -0.225.

Going from CACACAGA to GTTGTCTA, the “PBM E-score” value falls from 0.146 to 0.0583.

Compared with ATCGACAG, CGTCTAAG is lower in “PBM E-score” value: 0.00447 for the first, -0.00903 for the second.

Compared with AGCTGGTC, AACCTATA is higher in “PBM E-score” value: 0.0301 for the first, 0.121 for the second.

Going from CTTGTCGA to ACTGTCCA, the “PBM E-score” value falls from 0.00022 to -0.0303.

Compared with CCAAGACG, AAATTTGG is higher in “PBM E-score” value: -0.0257 for the first, 0.075 for the second.

Going from ATGAGTCC to ATAAGCGC, the “PBM E-score” value rises from -0.0879 to 0.139.

First: CAGTTCCG
Second: CTGCACTC
The “PBM E-score” value of the first is lower: -0.0436 for the first, -0.0313 for the second.

Compared with AGACCCCG, AGAGCCAT is lower in “PBM E-score” value: 0.095 for the first, -0.16 for the second.

Compared with GCCAGTCC, CGCGGCAG is higher in “PBM E-score” value: -0.237 for the first, 0.051 for the second.

Going from CCCACGTC to GACAAAGC, the “PBM E-score” value rises from 0.0348 to 0.06.

Compared with AATGAGGG, CTTGCACA is higher in “PBM E-score” value: -0.133 for the first, -0.0172 for the second.

Compared with GACCCCTA, GATCGAGC is higher in “PBM E-score” value: -0.248 for the first, 0.171 for the second.

First: ACTGTTTC
Second: AGCCCGAC
The “PBM E-score” value of the first is higher: -0.0462 for the first, -0.149 for the second.

Compared with ACCTATCT, GGCAGACC is lower in “PBM E-score” value: -0.102 for the first, -0.282 for the second.

Going from AGTGGCGC to GCGTACCA, the “PBM E-score” value rises from -0.0478 to 0.00249.

Going from CGTCAGAA to CTCTTTCA, the “PBM E-score” value rises from -0.166 to -0.125.

Going from ACCTTCGT to AGGGTGTG, the “PBM E-score” value rises from -0.13 to -0.0437.

Compared with GAGTCGGC, AAATGCTT is higher in “PBM E-score” value: -0.147 for the first, 0.0841 for the second.

Compared with AATCCGCC, CCGATCGG is higher in “PBM E-score” value: -0.0273 for the first, 0.12 for the second.

First: CTCCATGC
Second: GTTCGGAA
The “PBM E-score” value of the first is lower: -0.0943 for the first, 0.174 for the second.

First: GGCTAGGA
Second: ACGTTAGT
The “PBM E-score” value of the first is lower: -0.155 for the first, -0.0241 for the second.

First: CCCCTTCA
Second: ACGGATGA
The “PBM E-score” value of the first is lower: -0.257 for the first, 0.0354 for the second.

First: TCAGCACA
Second: ATCCAGAT
The “PBM E-score” value of the first is higher: 0.172 for the first, -0.0808 for the second.

Going from CTTTGTCC to CAGCTCAC, the “PBM E-score” value falls from 0.058 to -0.0192.

Compared with CAATCTGA, CCCGCCCA is higher in “PBM E-score” value: -0.0585 for the first, 0.00222 for the second.

First: ACCAACAG
Second: ACCCCGCC
The “PBM E-score” value of the first is lower: -0.239 for the first, -0.0102 for the second.

Going from AACCTGGT to ACCAGGAA, the “PBM E-score” value falls from 0.0368 to -0.00181.

Compared with ACACCCCT, ACTAGCCT is lower in “PBM E-score” value: -0.0545 for the first, -0.0583 for the second.

Compared with GAGGAGCA, CGGTCTAA is higher in “PBM E-score” value: -0.203 for the first, -0.0121 for the second.

Going from CGGGCGTA to ACTAAGTG, the “PBM E-score” value rises from -0.0361 to 0.00714.

Going from TCTTGACA to GCAAAGCC, the “PBM E-score” value falls from 0.0271 to -0.221.

Compared with AAAACTAG, CCAGAACA is lower in “PBM E-score” value: -0.0215 for the first, -0.0733 for the second.

Going from ATCGTTTC to GCGTTCTA, the “PBM E-score” value falls from -0.0091 to -0.0605.

Compared with AAAGATGG, CATTATCC is higher in “PBM E-score” value: -0.159 for the first, 0.108 for the second.

First: CACGGTAC
Second: CCTGCACC
The “PBM E-score” value of the first is lower: -0.198 for the first, -0.171 for the second.

First: GAAGTATA
Second: GAGCATGA
The “PBM E-score” value of the first is higher: 0.0967 for the first, -0.122 for the second.

Compared with AAATAGCC, CAGATCCG is higher in “PBM E-score” value: -0.0946 for the first, 0.0163 for the second.

Going from GGCAGCAC to CTTGGAAC, the “PBM E-score” value rises from -0.0698 to 0.00784.

Compared with CACAACTG, CTATACAA is higher in “PBM E-score” value: -0.0296 for the first, 0.128 for the second.
